These are yes or no findings as the source states them, for the method shown. In cells and extracts the contact can be indirect. A yes stands for co-enrichment or nearness to the bait. Other partners may have been found. For some of these results: No binding means not detected with the bait.
Legend:
Assay in all cases: affinity purification with mass spectrometry; anti-Flag IP from whole cell extracts of Dox-treated mouse ESCs expressing Flag-mTAF8 WT or deletions; washes with IP500 and IP100 buffer, elution with 0.1 M glycine pH 2.8; LC MS/MS, NSAF normalised to the bait
[1] = molecular target: Flag-mTAF8Δ141–184 (mouse) (UniProt Q9EQH4)
[2] = molecular target: Flag-tagged mouse TAF8 WT (mouse) (UniProt Q9EQH4)
[3] = molecular target: Flag-mTAF8Δ117–140 (mouse) (UniProt Q9EQH4)

Sequences of proteins named here, by UniProt entry; tags and fusion partners are left off. A change or cut given only in a name is not applied to a line headed by its entry.
UniProt Q9EQH4: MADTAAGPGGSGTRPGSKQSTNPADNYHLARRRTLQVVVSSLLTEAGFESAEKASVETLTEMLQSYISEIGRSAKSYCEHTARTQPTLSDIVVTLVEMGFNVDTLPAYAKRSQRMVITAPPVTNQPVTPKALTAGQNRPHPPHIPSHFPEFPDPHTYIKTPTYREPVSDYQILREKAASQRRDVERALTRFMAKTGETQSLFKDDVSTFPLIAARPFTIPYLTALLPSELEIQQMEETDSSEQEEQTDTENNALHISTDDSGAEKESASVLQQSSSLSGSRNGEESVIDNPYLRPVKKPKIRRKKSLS
UniProt Q8C092: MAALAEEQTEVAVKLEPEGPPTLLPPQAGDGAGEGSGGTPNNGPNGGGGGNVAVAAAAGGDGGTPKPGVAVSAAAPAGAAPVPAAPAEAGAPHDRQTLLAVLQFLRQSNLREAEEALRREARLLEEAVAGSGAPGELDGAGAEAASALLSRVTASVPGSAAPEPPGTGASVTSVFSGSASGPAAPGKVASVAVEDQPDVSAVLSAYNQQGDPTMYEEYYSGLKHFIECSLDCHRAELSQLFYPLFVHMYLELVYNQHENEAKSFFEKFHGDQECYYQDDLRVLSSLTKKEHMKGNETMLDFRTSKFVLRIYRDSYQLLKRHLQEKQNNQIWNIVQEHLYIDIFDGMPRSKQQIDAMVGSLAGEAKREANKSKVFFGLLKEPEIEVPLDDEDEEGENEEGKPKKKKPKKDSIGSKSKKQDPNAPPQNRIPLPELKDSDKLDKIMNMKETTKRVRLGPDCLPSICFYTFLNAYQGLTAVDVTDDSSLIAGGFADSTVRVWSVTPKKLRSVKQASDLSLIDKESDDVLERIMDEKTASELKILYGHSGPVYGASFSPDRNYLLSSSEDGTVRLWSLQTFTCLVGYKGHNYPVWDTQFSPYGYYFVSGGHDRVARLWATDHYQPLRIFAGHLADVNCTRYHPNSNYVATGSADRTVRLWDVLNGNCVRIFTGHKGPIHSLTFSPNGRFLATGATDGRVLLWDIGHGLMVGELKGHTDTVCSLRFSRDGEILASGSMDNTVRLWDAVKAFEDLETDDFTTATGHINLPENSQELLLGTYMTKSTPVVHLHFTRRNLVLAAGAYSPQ
UniProt Q8K0H5: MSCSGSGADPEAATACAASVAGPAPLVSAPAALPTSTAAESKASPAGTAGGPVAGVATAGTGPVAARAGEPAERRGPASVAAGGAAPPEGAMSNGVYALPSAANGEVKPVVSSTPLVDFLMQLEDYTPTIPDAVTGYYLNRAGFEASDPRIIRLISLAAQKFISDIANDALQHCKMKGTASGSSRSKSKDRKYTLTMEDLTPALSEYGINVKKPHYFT
UniProt Q62311: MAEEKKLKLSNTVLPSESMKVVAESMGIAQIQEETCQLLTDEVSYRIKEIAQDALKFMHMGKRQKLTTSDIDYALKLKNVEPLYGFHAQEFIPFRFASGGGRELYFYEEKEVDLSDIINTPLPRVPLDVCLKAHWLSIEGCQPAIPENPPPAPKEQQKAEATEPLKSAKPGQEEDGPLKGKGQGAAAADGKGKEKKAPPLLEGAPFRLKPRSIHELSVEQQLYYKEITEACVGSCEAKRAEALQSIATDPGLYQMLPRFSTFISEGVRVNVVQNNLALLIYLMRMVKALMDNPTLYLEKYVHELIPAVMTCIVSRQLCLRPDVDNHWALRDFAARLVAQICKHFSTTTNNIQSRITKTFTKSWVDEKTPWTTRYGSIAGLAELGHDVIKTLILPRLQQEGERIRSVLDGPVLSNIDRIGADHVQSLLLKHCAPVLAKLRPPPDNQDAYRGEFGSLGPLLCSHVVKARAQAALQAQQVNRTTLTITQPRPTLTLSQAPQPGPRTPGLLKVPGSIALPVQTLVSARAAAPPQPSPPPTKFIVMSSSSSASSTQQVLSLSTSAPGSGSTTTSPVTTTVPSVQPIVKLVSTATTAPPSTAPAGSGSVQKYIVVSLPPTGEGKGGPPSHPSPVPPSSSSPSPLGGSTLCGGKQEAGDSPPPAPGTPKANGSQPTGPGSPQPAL
UniProt Q8VI33: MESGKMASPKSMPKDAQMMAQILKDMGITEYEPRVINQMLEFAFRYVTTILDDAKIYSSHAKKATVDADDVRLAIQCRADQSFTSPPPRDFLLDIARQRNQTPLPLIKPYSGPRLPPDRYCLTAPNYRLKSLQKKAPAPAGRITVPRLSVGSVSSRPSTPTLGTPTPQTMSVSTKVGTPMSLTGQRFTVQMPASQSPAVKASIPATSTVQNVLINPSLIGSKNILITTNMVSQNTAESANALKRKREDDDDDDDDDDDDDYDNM

| Molecule | binding [1] | binding [2] | binding [3] |
| --- | --- | --- | --- |
| endogenous mouse TAF5 (from UniProt Q8C092 1-801) | no binding | binds | binds |
| endogenous mouse TAF10 (from UniProt Q8K0H5 1-218) | no binding | binds |  |
| endogenous mouse TAF4b (protein, UniProt G5E8Z2 1-850) MPAGLTEPAGAAAPVVSSASGAVTMAPVAALPVRVEGTPVALGPVTKAPVSVCVESVAPQPLPAPVGTLVTKVVPVTALPKLGSPRLPAPQIVTVKTPGTTTIQLPANLQLPPGTVLIKSNSGQLMLVSPQQAVTGAKTTSNITPRPAVPANTQTVKICTVPNSSSQLMKKVTVAPVKNLTQIGTTVATTASSTSSGQPVALPSSVITVTPAKLVNTVSTLKSSSLGVLSTPSNDARLKAETSVAAQTALPPTVLENVKKCKNFLSMLIKLACSGSQSPEMGQNVKRLVEQLLDAEIEAEEFTRKLYIELKSAPQPHLVPFLKKSVVALRQLLPNSQSFIENCVKEVSGDVVISSCTMTTATSPVVTSTVSPVLVSGATAPRTLSVQQTLNPLAGPGVANTGVVTLHSVAPAAATGGTTAATVLLQTSKPLTTSVPNTVAAVSLQPENPVVSGAAVTLAIPSATFGEASATPLCLPSAKPAITSAGTKADKPAIGTPVQIVTQPSTLLPQAAGIPQTAKVKQLVVQQPSGSSVNHVTSISHSSPLSTQNCGQKTPVNAVMPTSSIIKQITLPGNKLLSLQAQRSSIQSNKIKENGPTCFRGEDDINDVTFMAEVNLDEENACILAAHSDFVGTLIQSCKEEPFLVIGALQKRILDIGKKHDITELNSDAVNLISHATQERLRGLLEKLTTIAQHRMTIYKGSENYILSTDTRSQLKFLEKLDQLEKQRKDLEEREMLLKAAKSRSNKEDPEQLRLKQKAKELQQLELAQIQYRDANLTALAAIGPRKKRPLESGNESFKDNPSTSGTSSLTATKPFRPRITRICLRDLIFCMEQEREMKYSRALYLALLK | no binding | binds | binds |

The next lines start with the values.

| binding [1] | binding [2] | binding [3] | Molecule |
| --- | --- | --- | --- |
| no binding | binds | binds | endogenous mouse TAF6 (from UniProt Q62311 1-678) |
| no binding | binds |  | endogenous mouse TAF9 (from UniProt Q8VI33 1-264) |
| no binding | binds | binds | endogenous mouse TAF12 (protein, UniProt Q8VE65 1-161) MNQFGPSALINLSSFSSVKPEPASTPPQGSMANSTTVGKIAGTPGTGGRLSPENNQVLTKKKLQDLVREVDPNEQLDEDVEEMLLQIADDFIESVVTAACQLARHRKSSTLEVKDVQLHLERQWNMWIPGFGSEEIRPYKKACTTEAHKQRMALIRKTTKK |
